Assay [1] addresses recombinant extracellular domain (ECD) of the human prolactin receptor (PRLR) (human) (UniProt P16471). As to the kind of experiment: Biacore SPR.
Assay [2] has the same target. As to the kind of experiment: Biacore SPR, antibody covalently immobilized on CM4 chip.
Assay [3] has as its target cynomolgus PRLR ECD (cynomolgus). Described as above.
The target of another assay is T1, rat PRLR ECD (rat) (UniProt P05710).
T1 sequence (looked up): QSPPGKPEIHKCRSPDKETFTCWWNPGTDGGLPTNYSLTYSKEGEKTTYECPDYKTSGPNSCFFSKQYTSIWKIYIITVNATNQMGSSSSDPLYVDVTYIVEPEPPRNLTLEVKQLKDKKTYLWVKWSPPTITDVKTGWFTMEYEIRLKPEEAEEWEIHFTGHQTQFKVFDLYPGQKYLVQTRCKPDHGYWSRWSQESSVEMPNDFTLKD
Described as above.

Sequences of proteins named here, by UniProt entry; tags and fusion partners are left off. A change or cut given only in a name is not applied to a line headed by its entry.
UniProt P16471: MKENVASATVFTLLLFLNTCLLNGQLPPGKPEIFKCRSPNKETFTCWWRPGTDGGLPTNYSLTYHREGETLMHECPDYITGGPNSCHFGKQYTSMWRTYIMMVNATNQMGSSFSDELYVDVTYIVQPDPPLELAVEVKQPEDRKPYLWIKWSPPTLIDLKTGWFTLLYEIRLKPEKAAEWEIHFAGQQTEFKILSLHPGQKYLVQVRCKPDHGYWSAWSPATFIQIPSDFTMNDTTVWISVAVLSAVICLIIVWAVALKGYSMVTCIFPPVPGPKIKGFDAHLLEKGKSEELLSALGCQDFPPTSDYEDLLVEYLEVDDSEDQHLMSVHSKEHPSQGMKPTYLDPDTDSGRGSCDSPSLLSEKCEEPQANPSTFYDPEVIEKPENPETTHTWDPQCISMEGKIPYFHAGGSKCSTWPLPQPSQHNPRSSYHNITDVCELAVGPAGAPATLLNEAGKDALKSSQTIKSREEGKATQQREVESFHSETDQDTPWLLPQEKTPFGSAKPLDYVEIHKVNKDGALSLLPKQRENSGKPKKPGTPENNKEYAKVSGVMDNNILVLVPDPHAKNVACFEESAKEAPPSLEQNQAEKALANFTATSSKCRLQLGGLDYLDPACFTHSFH

A further assay has as its target T2, murine PRLR ECD (mouse) (UniProt Q08501).
T2 sequence (looked up): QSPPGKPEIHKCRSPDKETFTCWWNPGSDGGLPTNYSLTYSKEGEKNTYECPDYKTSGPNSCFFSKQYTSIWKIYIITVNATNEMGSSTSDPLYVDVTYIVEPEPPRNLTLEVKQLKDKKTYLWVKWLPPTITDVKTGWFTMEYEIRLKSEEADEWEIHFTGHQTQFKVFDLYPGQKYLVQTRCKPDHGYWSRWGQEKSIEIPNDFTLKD
Described as above.

Results are given in words; binding and its absence hold for the method and conditions named. Some entries that bind do so weakly or less than the wild type.

B1: he.06.275-4 (antibody, V domains shown)
VH: QVQLQESGPGLVKPSQTLSLTCTVSGYSITSDYAWNWIRQFPGKGLEWMGYISYSGSTSYNPSLKSRITISRDTSKNQFSLQLNSVTAADTAVYFCARDYGYVFDYWGQGTTLTVSS
VL: DVQITQSPSSLSASPGDRITLTCRASKNIYKYLAWYQEKPGKANKLLIYSGSTLHSGIPSRFSGSGSGTDFTLTISSLQPEDFAMYYCQQHNDYPYTFGQGTKLEIK
As for B1, the binding entry in assay [1], in assay [2] and in assay [3] was “binds” each time.

B2: he.06.275-2 (antibody, V domains shown)
VH: QVQLQESGPGLVKPSQTLSLTCTVSGYSITSDYAWNWIRQFPGKGLEWMGYISYSGSTSYNPSLKSRITISRDTSKNQFSLQLNSVTAADTAVYFCARDYGYVFDYWGQGTTLTVSS
VL: DVQITQSPSSLSASPGDRITLTCRASKNIYKYLAWYQEKPGKTNNLLIYSGSTLHSGIPSRFSGSGSGTDFTLTISSLQPEDFAMYYCQQHNDYPYTFGQGTKLEIK
Take B2: the binding result in assay [1] is on record as “binds”.

B3: he.06.275-3 (antibody, V domains shown)
VH: DVQLQESGPGLVKPSQTLSLTCTVTGYSITSDYAWNWIRQFPGKKLEWMGYISYSGSTSYNPSLKSRITISRDTSKNQFSLQLNSVTAADTATYFCARDYGYVFDYWGQGTTLTVSS
VL: DVQITQSPSSLSASPGDRITLTCRASKNIYKYLAWYQEKPGKANKLLIYSGSTLHSGIPSRFSGSGSGTDFTLTISSLQPEDFAMYYCQQHNDYPYTFGQGTKLEIK
B3: in assay [1], the binding entry is listed as “binds”.

B4: he.06.642-2 (antibody, V domains shown)
VH: EVQLVESGGGLVQPGGSLRLSCAVSGFTFSSYGMSWVRQAPGKGLEWVATVSSGGTYTYYPDSVKGRFTISRDNSKNTLYLQMNSLRAEDTAVYYCARHRGNYYATYYYAMDYWGQGTLVTVSS
VL: DIVLTQSPDSLAVSLGERATINCKASKSVSTSGYTYMHWYQQKPGQPPKLLIYLASNRESGVPDRFSGSGSGTDFTLTISPVQAEDVATYYCQHSGELPPSFGQGTKLEIK
Consider B4, for which the binding entry (with rat PRLR ECD (rat); in assay [3]; with murine PRLR ECD (mouse)) was “binds” each time.

For the origin of these results see patent US20080292620A1.
